No constants are given. Whether binding was seen depends on the method and setting. Binding seen in cells or lysates may run through a third protein. These calls come from enrichment with a bait or labelling near it, and not all partners need be listed. No binding means not detected with the bait. Sequences can lack the tags named with a protein.
B1: thrombospondin-related anonymous protein (TRAP, PBANKA_1349800) (protein, UniProt A0A509AST0 25-606)
chain: QEILDEIKYSEEVCNEQIDLHILLDGSGSIGHSNWISHVIPMLTTLVDNLNISRDEINISMTLFSTYARELVRLKRYGSTSKASLRFIIAQLQNNYSPHGTTNLTSALLNVDNLIQKKMNRPNAIQLVIILTDGIPNNLKKSTTVVNQLKKKDVNVAIIGVGAGVNNMFNRILVGCGKLGPCPYYSYGSWDQAQTMIKPFLSKVCQEVEKVALCGKWEEWSECSTTCDNGTKIRKRKVLHPNCAGEMTAPCKVRDCPPKPVAPPVIPIKVPDVPVKPVEPIEPAEPAEPAEPAEPAEPAEPAEPAEPAEPAEPAEPAEPAEPAEPAEPAEPAEPAEPAEPAKPAEPAEPAEPAEPAEPVNPDNPILPIKPEEPSGGAEPLNPEVENPFIIPDEPIEPIIAPGAVPDKPIIPEESNELPNNLPESPSDSQVEYPRPNDNGDNSNNTINSNKNIPNKHVPPTDDNPYKGQEERIPKPHRSNDEYIYYNNANNNDKLEPEIPSKDYEENKSKKQSKSNNGYKIAGGIIGGLAIIGCIGVGYNFIAGSSAAAMAGEAAPFEDVMADDEKGIVENEQFKLPEDNDWN

Sequences of proteins named here, by UniProt entry; tags and fusion partners are left off. A change or cut given only in a name is not applied to a line headed by its entry.
UniProt A0A509AC23: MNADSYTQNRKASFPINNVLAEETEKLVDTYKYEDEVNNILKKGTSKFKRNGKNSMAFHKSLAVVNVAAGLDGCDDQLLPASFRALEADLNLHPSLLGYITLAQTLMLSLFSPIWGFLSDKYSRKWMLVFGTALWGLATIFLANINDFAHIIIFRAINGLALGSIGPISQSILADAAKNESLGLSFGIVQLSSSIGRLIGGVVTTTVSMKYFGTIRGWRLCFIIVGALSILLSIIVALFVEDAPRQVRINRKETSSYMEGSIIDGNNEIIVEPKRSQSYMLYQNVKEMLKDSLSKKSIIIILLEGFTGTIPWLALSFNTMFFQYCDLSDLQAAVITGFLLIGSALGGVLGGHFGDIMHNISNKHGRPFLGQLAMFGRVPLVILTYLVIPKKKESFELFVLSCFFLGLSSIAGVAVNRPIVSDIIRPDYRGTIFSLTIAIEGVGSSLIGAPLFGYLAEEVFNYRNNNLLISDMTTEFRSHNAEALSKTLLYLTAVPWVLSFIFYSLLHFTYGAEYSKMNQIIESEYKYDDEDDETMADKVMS

biological target: T1, claudin-like apicomplexan microneme protein (CLAMP) fused to a 3xFlag tag (P. berghei); test: affinity purification with mass spectrometry; anti-FLAG M2 Affinity Gel IP of CLAMP-Flag, 2h at 4°C, from two independent lysates of untreated clampcKO salivary gland sporozoites (10mM Tris pH 7.5, 150mM NaCl, 0.5 mM EDTA, 0.5% NP40); control: untagged PbGFP sporozoite lysates; timsTOF PRO mass spectrometry
T1 sequence: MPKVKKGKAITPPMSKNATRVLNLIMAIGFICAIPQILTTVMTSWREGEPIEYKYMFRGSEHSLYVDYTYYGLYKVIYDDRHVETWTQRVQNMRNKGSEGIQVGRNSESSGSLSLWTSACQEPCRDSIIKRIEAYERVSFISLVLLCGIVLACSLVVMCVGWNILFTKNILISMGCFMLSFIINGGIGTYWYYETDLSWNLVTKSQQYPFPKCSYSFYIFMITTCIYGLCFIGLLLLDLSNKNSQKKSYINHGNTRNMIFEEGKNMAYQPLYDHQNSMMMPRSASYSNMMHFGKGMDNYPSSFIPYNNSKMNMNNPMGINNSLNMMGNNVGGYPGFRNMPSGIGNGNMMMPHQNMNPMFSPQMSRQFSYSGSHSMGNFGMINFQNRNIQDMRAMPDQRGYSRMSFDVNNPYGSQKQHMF

Q: With “elongation factor 1-alpha (PBANKA_1133300) (P. berghei (endogenous in sporozoites))” as the molecule, how does the binding read?
A: no binding

Q: With “putative pantothenate transporter (PAT, PBANKA_0303900) (from UniProt A0A509AC23)” as the molecule, how does the binding read?
A: binds

Q: B1 was tested. Which binding did it give?
A: binds
